In PubChem BioAssay AID493014 (National Center for Advancing Translational Sciences (NCATS), 2011):
Screen size: about 340,000 compounds; about 170 (0.05%) were called active. Inconclusive results, whose numbers are uncertain, are shown with a selection of clear calls. Calls follow the shape of the dose curve; as a rule, active = well fitted inhibition curve with a large enough effect in the signal ratio, with a control signal flat (not every such curve was filed as active); inconclusive = small, poorly fitted or top-dose-only effect, or effect the other way, or a change in a side signal; inactive = flat fitted curve, though single readings scatter; the % refers to the signal ratio. Potencies beside an inconclusive call are fits to weak or partial responses and may not hold up.

Assay: qHTS Assay to Find Inhibitors of Chronic Active B-Cell Receptor Signaling;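 as to activity change, negative = inhibition: plate controls were basal doxycycline-induced cells for no effect and cells given 10 µM MG132 for full effect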
Conditions: ABC-DLBCL IkBa-CBG/CBR reporter, luminescence ratio (green luciferase fused to IkBa over red control in TMD8 lymphoma cells), 4 h; activity change, negative = inhibition: at 46.1 µM (top of the series)
Method in brief: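 TMD8 human ABC-DLBCL cells with doxycycline-inducible IκBα–green luciferase fusion and unfused red luciferase, in 0.5% FBS medium; compounds up to 46 uM, 4 h at 37C. Green/red luminescence ratio, filter-overlap corrected, fitted to concentration-response curves.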
Potency is read from the fitted curve at half-maximal effect.

Compound | activity change, negative = inhibition | Potency
CCOC(=O)N1CCN(C(=O)CCS(=O)(=O)c2ccc3c(c2)CC(C)N3C(=O)CC)CC1 (configuration not stated) | inactive: -6.58% | –
Fc1ccc(CSc2nnc(-c3cccnc3)o2)cc1 | inactive: 6.98% | –
CCOCCCNS(=O)(=O)c1ccc2c(c1)CCN2C(=O)CC | inconclusive: 8.13% | –
Cc1nnc(SCC(=O)N2c3ccccc3C(C)(c3ccc(Cl)cc3)CC2(C)C)s1 (configuration not stated) | inconclusive: 7.59% | –
Cc1ccccc1-c1cc(C(=O)N/N=C/c2cccnc2)c2ccccc2n1 | inactive: -18.7% | –
O=C(NCCCC1CCCC1)C1CCC(=O)N(Cc2cccc(F)c2)C1 (configuration not stated) | inactive: 0.882% | –
Cc1ccc(C(=O)NNCC(=O)Nc2ccc(Cl)cc2F)cc1 | inactive: -5.74% | –
O=C(/C=C/c1cccc(F)c1)OCC(=O)N1CCCC1 | inactive: -0.174% | –
COc1ccccc1N1CCN(C/C=C/c2ccc(N(C)C)cc2)CC1 | inactive: 5.14% | –
COc1ccc(NC(=O)CN(C)C(=O)c2ccc(N3CCCCCC3)c([N+](=O)[O-])c2)cc1 | inactive: 19% | –
Cc1cc(C)nc(S/C=C/C(=O)c2ccc(F)cc2)n1 | inconclusive: -0.784% | –
Cc1ccc(NC(=O)c2cc(S(=O)(=O)NCCC3=CCCCC3)ccc2F)cc1 | inconclusive: 16.2% | –
CCc1ccc(NC(=O)CN(CC(=O)Nc2ccc(CC)cc2)CC(C)O)cc1 (configuration not stated) | inconclusive: -13% | –
C=C(C)COc1ccc(-c2n[nH]c(C)c2-c2ccc(OC)c(OC)c2)c(O)c1 | – | inconclusive: 35.5 µM [falling, single point]
COc1cc(NC(=O)Cn2cnc3c(NCc4ccccc4)ncnc32)cc(OC)c1OC | inconclusive: -1.77% | –
COC(=O)[C@@]1(Cc2ccc(OC)cc2)[C@H]2c3cc(C(=O)N(C)C)n(CCSCCO)c3C[C@H]2CN1C(=O)c1ccccc1 | inconclusive: -18.9% | –
COc1ccccc1NC(=O)CC1Nc2ccccc2NC1=O (configuration not stated) | – | inconclusive: 18.4 µM [falling, partial curve]
Cc1cc(C)nc(NC(=O)c2cccs2)n1 | inconclusive: -12.3% | –
Cc1cccc(N2CCN(C(=O)C3CCN(c4nnc(-n5cccc5)s4)CC3)CC2C)c1 (configuration not stated) | inactive: -16.4% | –
Cc1cc(C=C2C(=O)CCCC2=O)c(C)n1-c1ccccc1 | inactive: 1.44% | –
O=C(CN1C(=O)/C(=C/c2ccc(F)cc2)SC1=S)NC1C=CS(=O)(=O)C1 (configuration not stated) | inactive: 28.1% | –
O=c1cc(NC2CCCCCC2)[nH]c(=O)[nH]1 | inconclusive: -3.11% | –
CCOC(=O)c1nnc2c(Br)c(-c3ccccc3)nn2c1C | – | inconclusive: 9.2 µM [rising, partial curve]
Cc1ccsc1/C=N/Nc1nc2ccccc2s1 | – | inconclusive: 3.66 µM [falling, single point]
CC(=O)Oc1ccc(Cl)cc1/C=C/c1cc(OC(C)=O)c2ccccc2n1 | inconclusive: 5.19% | –
CC1(C)CC(=O)C=C(c2ccc(Cl)c(C(F)(F)F)c2)C1 | inconclusive: 6.59% | –

Two entries drawn at random from those above:
Compound | activity change, negative = inhibition | Potency
O=C(CN1C(=O)/C(=C/c2ccc(F)cc2)SC1=S)NC1C=CS(=O)(=O)C1 (configuration not stated) | inactive: 28.1% | –
O=C(/C=C/c1cccc(F)c1)OCC(=O)N1CCCC1 | inactive: -0.174% | –

The listing continues.

Compound | activity change, negative = inhibition | Potency
CCC(=C/c1sc2ccc3ccccc3c2[n+]1C)/C=C1\Sc2ccc3ccccc3c2N1C | – | inconclusive: 11.2 µM [falling, partial curve]
O=C(OCC(=O)c1ccc[nH]1)c1ccc(Cl)nc1 | – | inconclusive: 16.4 µM [rising, single point]
Cc1cccc(C(=O)Nc2ccccc2C(=O)NCc2ccco2)c1 | inconclusive: -9.75% | –
CNC(=O)Nc1cccc(-c2cc(-c3c(Cl)cccc3Cl)no2)c1 | inconclusive: -29.1% | –
Cc1cc(OC(C(=O)O)c2ccccc2)c2c(C)c(Cc3ccccc3)c(=O)oc2c1 (configuration not stated) | inconclusive: 5% | –
C[N+]12CCCCC1C(COC(=O)c1ccc3c(c1)OCO3)CCC2 (configuration not stated) | inconclusive: 12.4% | –
CC(C)N1C(=O)CCC1C(=O)NCCc1ccccc1 (configuration not stated) | inconclusive: -0.297% | –
CC(C)NC(=O)c1ccc(N(Cc2ccc(Cl)cc2)S(C)(=O)=O)cc1 | inactive: -10.1% | –
COc1cc([N+](=O)[O-])ccc1NC(=O)CCCOc1ccccc1 | – | inconclusive: 3.55 µM [rising, partial curve]
CN(C)c1ccc([C@@H]2[C@@H]([N+](=O)[O-])[C@H]3C=Cc4ccccc4N3[C@H]2C(=O)c2ccc(Cl)cc2)cc1 | inactive: -3.44% | –
C=CCn1c(N)c(C(=O)NCC2CCCO2)sc1=S (configuration not stated) | inconclusive: -1.04% | –
COc1ccccc1NC(=O)C1=C(C)Nc2nc(SCc3cc(C)ccc3C)nn2C1c1ccccc1 (configuration not stated) | – | inconclusive: 1.12 µM [falling, partial curve, poor fit]
Cc1csc(SCC(=O)NC2CCCC2)n1 | inconclusive: 0.731% | –
CC(=O)Oc1cccc(-c2nc3ccccc3c(=O)o2)c1 | – | inconclusive: 1.41 µM [falling, partial curve, poor fit]
Clc1ccc(SCc2cc(-c3ccccc3)no2)cc1 | inconclusive: 6.72% | –
CC(NC(=O)c1c(O)c2ccccc2n(C)c1=O)c1ccccc1 (configuration not stated) | – | inconclusive: 35.5 µM [falling, single point]
CCOc1cc(N2CCOCC2)c(OCC)cc1NC(=O)CSc1ncccc1C(=O)O | inconclusive: -0.437% | –
COc1ccccc1NC(=O)COC(=O)CCc1ccc(S(=O)(=O)N2CCOCC2)cc1 | inconclusive: -12.3% | –
COc1ccc(-c2nc(CN3CCN(C(=O)c4ccco4)CC3)c(C)o2)c(F)c1 | inactive: -0.726% | –
CC(C)=CCN1CCN(CCC2=C(C)CCCC2(C)C)CC1CCO (configuration not stated) | inactive: -1.12% | –
CC(C)N(C(=O)[C@H]1C[C@H](CC(=O)NCc2cccc(C(F)(F)F)c2)C(=O)N2CCc3c([nH]c4ccc(Cl)cc34)[C@]12C)C(C)C | inconclusive: -0.348% | –
CCOC(=O)C1=C(O)/C(=C/c2ccc(CNC(=O)C(=O)Nc3ccc(C)cc3)o2)N=C1C | inactive: 15.2% | –
CN(C(=O)c1ccccc1C(=O)OCC(=O)Nc1ccccc1)c1ccccc1 | inconclusive: -1.87% | –
Cc1ccc2nc(SCc3ccc([N+](=O)[O-])cc3)[nH]c2c1 | inconclusive: 15% | –
O=C(CSc1c2c(nc3cc(Cl)ccc13)CCCC2)NCc1ccco1 | – | inconclusive: 0.103 µM [falling, full curve, poor fit]
Cc1ccc(C(=O)Nc2nc(=O)n(C(=O)C3CC3)s2)cc1 | inconclusive: -10.7% | –
